# Some entries repeat one wording, which the source may state once for all of them.
# Test system: MCF-7, NHDF and P14 cells
# Assay: Fluorescence and confocal microscopy: uptake and sub-cellular localization
# Type: cell-based, human
# Settings: co-staining with MitoTracker, ER-Tracker, Hochest 33342
# Experimental: The timescale of trafficking of these compounds and their sub-cellular localization have been subsequently examined in MCF-7, NHDF and P14 cells using fluorescence microscopy. The cells are mounting on 0.1 mm thick glass cover slips by withdrawal of the respectively growth medium.
# The incubation times to test the ability compounds to penetrate into cells varied from 5 min to 48 h, and concentrations onto the cells were 10 nM and 100 µM by dissolving in appropriate medium. […] By analyzing each image recorded, all the compounds in all cells rapidly crossed the cell membrane (5 min) and induced a slight stain in the first minutes of incubation, depending on the type of cells. However, for incubation times longer than 30 min, it seems that this difference in the stained disappeared, thus appearing that the compounds were localized into an organelle of the cytoplasm.
# Besides, the subcellular localization of the compounds has been confirmed by co-staining with MitoTracker™ (25 nM, 45 min of incubation) and ER-Tracker™ (100 nM, 30 min of incubation) probes in MCF-7, NHDF and P14 cells, with compound concentrations of 10 nM and 100 nM and for incubation times of 1 h.
# After growth in the glass bottom culture dishes coated with collagen (1×10^4 cells/dish), the cells were incubated in the dark at 37°C with 10 nM of all the compounds and analyzed from 5 min to 48 h.
# Prior to visualization, the excess probe was washed off by rinsing in PBS four times. After mounting these samples, the compounds were localized using a Zeiss AX10 microscope and the Axio Vision Real 4.6 software.
# In the co-localization experiment, cells were incubated in the dark at 37°C with 100 nM of all the compounds for 1 h. […] Prior to visualization, excess probe was washed off by rinsing in PBS four times.
# An appropriate emission band was selected for the two fluorescent channels. A 63× ApoChromat,1.4-NA objective (Carl Zeiss) was used to ensure high-resolution images. DIC images were collected simultaneously with transmitted light by excitation at 633 nm. Sequential rather than simultaneous acquisition was used to avoid bleed-through between the two fluorescent channels. Images were processed with LSM Image Browser (Zeiss), ImageJ and Adobe Photoshop.
row,SMILES,sub-cellular localization
1,c1cc2ccc3ccc4nc3c2nc1CNCCNCCNCc1ccc2ccc3ccc(nc3c2n1)CNCCNCCNC4 [[30]phen2N6],localize in mitochondria and ER
2,CN1CCCNCc2cccc(n2)CNCCCN(C)CCCNCc2cccc(n2)CNCCC1 [Me2[28]py2N6],localize in mitochondria and ER
3,c1cc2ccc3ccc4nc3c2nc1CNCCCCCCNC4 [[16]phenN2],localize in mitochondria and ER
4,c1cc2ccc3ccc4nc3c2nc1CN1CCCCCCN(C4)Cc2ccc3ccc4ccc(nc4c3n2)CN2CCCCCCN(Cc3ccc4ccc5ccc(nc5c4n3)C2)Cc2ccc3ccc4ccc(nc4c3n2)C1 [cryptphen],localize in mitochondria and ER

# Source: PMC3221659, “Targeting of Mitochondria-Endoplasmic Reticulum by Fluorescent Macrocyclic Compounds” (PLoS ONE, 2011)
